# Measured values taken from patent US10850134B2, “Method and kit for home controlled ovarian stimulation for in vitro fertilization” (priority 2019, dated 2020).
# At least one compound was matched to its structure with a doubt left.
# Test system: Luteinizing hormone (LH) blood level
# Assay: LH blood level in patients on home controlled ovarian hyperstimulation method with vaginal elagolix (Example 2)
# Format: in vivo, female patients
# Details: lower dose taken as a vaginal suppository instead of orally
# Procedure: Five female patients were treated with the controlled ovarian hyperstimulation method described herein using the elagolix pill (vaginal route) instead of the conventional Ganirelex/Cetrotide injectables. On day 3 of the patient's menstrual cycle, the patient orally took 100 mg (two 50 mg oral tablets) of clomiphene citrate and 5 mg (two 2.5 mg oral tablets) of letrozole. The patient then took the same oral dosages of clomiphene citrate and letrozole daily on each of days 4-7 of the patient's menstrual cycle. On day 8 of the patient's menstrual cycle, the patient orally took only 100 mg (two 50 mg oral tablets) of clomiphene citrate, and stopped the letrozole. On day 9 of the menstrual cycle, the patient orally took 100 mg (two 50 mg oral tablets) of clomiphene citrate and inserted vaginally a 50 mg tablet of elagolix as a vaginal suppository. On day 10 of the menstrual cycle, the patient orally took only 100 mg (two 50 mg oral tablets) of clomiphene citrate. On day 11 of the menstrual cycle, the patient orally took 100 mg (two 50 mg oral tablets) of clomiphene citrate and inserted vaginally a 50 mg tablet of elagolix as a vaginal suppository. Also, on day 11, the patient took a home ovulation test in the morning (9:00 am) and in the evening (9:00 pm). […]
smiles,measurement,value
"COc1cccc(-c2c(C)n(Cc3c(F)cccc3C(F)(F)F)c(=O)n(C[C@H](NCCCC(=O)O)c3ccccc3)c2=O)c1F [Vaginal elagolix suppository, elagolix]",GnRH antagonist effect in the patients,effective GnRH antagonist
